Assay results reported in patent US9624286B2, “Composition comprising peptide derived from adiponectin” (KNU-INDUSTRY COOPERATION FOUNDATION, priority 2013, dated 2017).
Some of these results come from one statement about several compounds together.

test system: NF-κB; experiment: Inhibition of NF-κB activity (in situ proximity ligation assay, nuclear translocation in NIH3T3 cells); assay type: cell-based, mouse; conditions: peptide 0.1, 1.0 and 10 μM, 1 hour before TNF-α (25 μg/ml) for 2 hours, FIGS. 4a to 4d

Substance	reduction of NF-κB translocation into the nucleus as compared with control group
Phe-Thr-Tyr (FTY; Peptide fragment) [SEQ ID NO: 5, adiponectin-derived peptide fragment]	25˜60%
His-Ile-Thr (HIT; Peptide fragment) [SEQ ID NO: 2, adiponectin-derived peptide fragment]	25˜60%
Leu-Phe-Thr-Tyr-Asp (LFTYD; Peptide fragment) [SEQ ID NO: 3, adiponectin-derived peptide fragment]	25˜60%
